In the assay the target is human BLM (Bloom's helicase) (human (endogenous in PD20 and PD20 + D2 fibroblasts)) (UniProt P54132). Briefly: co-IP; whole cell extracts of PD20 + D2 (and PD20) fibroblasts, untreated or aphidicolin-treated; precleared with rabbit IgG; IP with FANCD2 or BLM antibody at 4°C overnight, Sepharose 4B beads; buffer 10 mM Tris pH 7.4, 150 mM NaCl, 1% NP-40, 0.5% sodium deoxycholate, 1 mM EDTA, 1 mM DTT; western blot.

The chains behind the UniProt entries cited, without tags or fusion partners.
UniProt P54132: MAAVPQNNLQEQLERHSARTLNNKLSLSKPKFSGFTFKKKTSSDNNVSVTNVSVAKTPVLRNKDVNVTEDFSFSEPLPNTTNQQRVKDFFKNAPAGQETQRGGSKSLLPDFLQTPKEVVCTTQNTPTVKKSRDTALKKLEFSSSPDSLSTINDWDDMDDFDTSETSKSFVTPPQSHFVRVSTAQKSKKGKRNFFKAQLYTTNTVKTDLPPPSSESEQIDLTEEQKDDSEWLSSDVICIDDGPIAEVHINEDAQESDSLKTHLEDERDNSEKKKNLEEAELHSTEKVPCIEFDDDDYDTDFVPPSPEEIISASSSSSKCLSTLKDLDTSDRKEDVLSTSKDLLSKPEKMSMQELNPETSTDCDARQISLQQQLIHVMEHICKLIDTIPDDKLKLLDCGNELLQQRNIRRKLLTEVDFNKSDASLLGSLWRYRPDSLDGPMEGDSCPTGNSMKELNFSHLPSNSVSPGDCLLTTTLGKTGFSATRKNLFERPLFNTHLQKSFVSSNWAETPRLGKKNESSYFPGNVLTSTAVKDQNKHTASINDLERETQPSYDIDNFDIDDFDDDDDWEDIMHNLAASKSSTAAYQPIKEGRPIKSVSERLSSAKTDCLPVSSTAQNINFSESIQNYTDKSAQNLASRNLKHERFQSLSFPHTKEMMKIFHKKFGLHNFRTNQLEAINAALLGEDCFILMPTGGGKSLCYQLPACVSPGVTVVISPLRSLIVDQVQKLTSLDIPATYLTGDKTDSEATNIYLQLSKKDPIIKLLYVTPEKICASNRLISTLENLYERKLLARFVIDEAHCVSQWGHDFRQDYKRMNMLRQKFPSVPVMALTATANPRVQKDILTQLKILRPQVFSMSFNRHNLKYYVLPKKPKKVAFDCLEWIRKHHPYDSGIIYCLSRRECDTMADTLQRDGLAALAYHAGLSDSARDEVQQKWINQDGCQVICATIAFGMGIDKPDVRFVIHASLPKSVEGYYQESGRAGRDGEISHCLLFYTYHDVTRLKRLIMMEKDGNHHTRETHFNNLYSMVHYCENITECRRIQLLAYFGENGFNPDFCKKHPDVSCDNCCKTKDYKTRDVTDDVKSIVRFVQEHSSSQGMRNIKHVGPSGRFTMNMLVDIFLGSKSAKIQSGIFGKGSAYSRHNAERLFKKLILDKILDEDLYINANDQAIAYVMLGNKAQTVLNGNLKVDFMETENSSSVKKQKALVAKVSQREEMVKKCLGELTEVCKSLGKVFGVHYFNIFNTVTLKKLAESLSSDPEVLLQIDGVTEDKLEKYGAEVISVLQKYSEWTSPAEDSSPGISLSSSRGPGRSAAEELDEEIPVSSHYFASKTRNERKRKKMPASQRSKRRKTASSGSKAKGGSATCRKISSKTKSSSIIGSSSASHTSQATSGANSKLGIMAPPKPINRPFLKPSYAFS
UniProt Q9NVI1: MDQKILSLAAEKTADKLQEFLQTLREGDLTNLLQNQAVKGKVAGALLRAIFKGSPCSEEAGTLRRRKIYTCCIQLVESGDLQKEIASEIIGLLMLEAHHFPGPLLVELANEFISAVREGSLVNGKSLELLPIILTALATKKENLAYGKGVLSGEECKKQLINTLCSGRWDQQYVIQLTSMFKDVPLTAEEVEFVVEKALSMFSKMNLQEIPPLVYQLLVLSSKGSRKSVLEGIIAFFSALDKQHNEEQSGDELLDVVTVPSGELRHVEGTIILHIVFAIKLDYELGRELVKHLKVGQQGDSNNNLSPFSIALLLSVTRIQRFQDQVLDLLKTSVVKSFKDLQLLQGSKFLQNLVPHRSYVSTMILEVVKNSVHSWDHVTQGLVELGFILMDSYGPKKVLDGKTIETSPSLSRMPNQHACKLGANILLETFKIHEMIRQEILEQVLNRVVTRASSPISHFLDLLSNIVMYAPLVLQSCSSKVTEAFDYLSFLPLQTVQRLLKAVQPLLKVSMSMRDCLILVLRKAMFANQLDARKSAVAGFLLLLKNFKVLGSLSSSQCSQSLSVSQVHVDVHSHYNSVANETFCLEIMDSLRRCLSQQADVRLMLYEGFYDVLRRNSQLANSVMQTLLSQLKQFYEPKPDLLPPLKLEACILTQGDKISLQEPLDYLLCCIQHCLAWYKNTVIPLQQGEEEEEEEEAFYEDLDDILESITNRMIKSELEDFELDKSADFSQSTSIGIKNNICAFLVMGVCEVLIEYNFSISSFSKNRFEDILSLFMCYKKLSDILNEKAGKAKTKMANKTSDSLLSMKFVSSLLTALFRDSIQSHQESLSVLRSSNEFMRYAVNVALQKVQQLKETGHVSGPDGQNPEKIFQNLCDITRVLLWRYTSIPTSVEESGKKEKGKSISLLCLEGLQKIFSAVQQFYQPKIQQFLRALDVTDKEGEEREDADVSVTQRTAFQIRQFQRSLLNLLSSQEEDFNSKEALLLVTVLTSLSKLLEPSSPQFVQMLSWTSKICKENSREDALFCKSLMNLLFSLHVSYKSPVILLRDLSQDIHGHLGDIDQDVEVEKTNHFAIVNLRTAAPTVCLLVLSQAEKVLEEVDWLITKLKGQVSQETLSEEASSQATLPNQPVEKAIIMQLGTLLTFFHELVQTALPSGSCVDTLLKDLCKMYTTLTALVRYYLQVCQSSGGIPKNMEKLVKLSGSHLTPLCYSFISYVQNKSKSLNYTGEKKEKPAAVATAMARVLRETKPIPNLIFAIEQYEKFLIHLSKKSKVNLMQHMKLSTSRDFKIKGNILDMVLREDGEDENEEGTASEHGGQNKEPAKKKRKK

This is an account of results in PMC3711430.

No constants are given. Whether binding was seen depends on the method and setting. Binding seen in cells or lysates may run through a third protein.

Take “human FANCI (from UniProt Q9NVI1 1-1328)”: the binding entry is “no binding”.
